# PubChem BioAssay AID1224826, NIAID, 2016
# Test: 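Knock-downs that raise or lower Tnf reporter signal after endotoxin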 (primary screen)
# Cells: RAW264.7 G9 macrophages from mouse bearing reporters for p65 (GFP) and the Tnf promoter (mCherry)
# Reagents: siRNA pool against mouse genes, 100 nM
# Timing: 16 h of LPS stimulation, after 2 days of siRNA transfection
# Conditions: bacterial lipopolysaccharide (Salmonella minnesota R595), 10 ng/ml
# Measurement: 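Nuclear mCherry signal of the Tnf promoter reporter measured by imaging after background removal, scaled to each plate median and turned into robust z-scores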
# Reading the numbers: Tnf reporter robust z-score: higher = stronger Tnf promoter reporter signal after LPS; Tnf reporter intensity: higher = stronger Tnf promoter reporter signal
# Rule for the call: 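a well counts as active at a score of -1.3 or below (Tlr4 knock-down control median) or above 3 (raised signal); controls and wells holding fewer than 50 cells are excluded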
# Calls: active = Tnf reporter clearly lowered or raised; inactive = no clear change in Tnf reporter
# Here is a random part of about 17,000 reagents. About 1,110 of them (6.6%) were called active. 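Active means lowered or raised reporter signal; replicate intensities are raw and not normalised per plate.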 Unmarked entries are inactive. Further read-outs or replicates are left out here.
Gene,Tnf reporter robust z-score,fewer than 50 cells in well,"Tnf reporter intensity, replicate 1"
Ccl25 (GeneID 20300),-0.71,enough cells in well,144
BC048679 (GeneID 210321),-1.01,enough cells in well,128
Rtkn (GeneID 20166),-0.14,enough cells in well,94.1
Slc35g1 (GeneID 240660),1.02,enough cells in well,156
Rtl5 (GeneID 331474),-0.13,enough cells in well,169
Sucla2 (GeneID 20916),1.56,enough cells in well,112
Ubl3 (GeneID 24109),-0.46,enough cells in well,201
Cry1 (GeneID 12952),0.83,enough cells in well,283
Stat2 (GeneID 20847),-0.8,enough cells in well,183
Prdm5 (GeneID 70779),-0.09,enough cells in well,257
Amd2 (GeneID 100041585),-1.22,enough cells in well,114
Epn1 (GeneID 13854),-1.02,enough cells in well,190
Tex13a (GeneID 67944),-0.54,enough cells in well,176
Unkl (GeneID 74154),-0.53,enough cells in well,194
Mmp8 (GeneID 17394),0.22,enough cells in well,234
Gp1bb (GeneID 14724),0.01,enough cells in well,202
Vmn1r83 (GeneID 171243),0.6,enough cells in well,131
Tab1 (GeneID 66513),0.25,enough cells in well,316
Crygn (GeneID 214301),-0.13,enough cells in well,126
Etv3 (GeneID 27049),-0.15,enough cells in well,224
Rbm6 (GeneID 19654),-0.14,enough cells in well,345
Npy4r (GeneID 19065),-0.78,enough cells in well,277
Spmip10 (GeneID 67343),1.62,enough cells in well,359
Hsf4 (GeneID 26386),-0.33,enough cells in well,217
Nr1h5 (GeneID 381463),0.67,enough cells in well,228
Chodl (GeneID 246048),-0.32,enough cells in well,157
Cd7 (GeneID 12516),-0.1,enough cells in well,189
Zfand2b (GeneID 68818),-0.09,enough cells in well,265
Megf6 (GeneID 230971),-0.1,enough cells in well,154
Cnpy2 (GeneID 56530),-0.94,enough cells in well,202
Cby1 (GeneID 73739),-0.29,enough cells in well,255
Impa1 (GeneID 55980),1.34,enough cells in well,338
Ano2 (GeneID 243634),,fewer than 50 cells per well; well left out of calls,124
Or13e8 (GeneID 56014),3.19 (active),enough cells in well,202
Gprc6a (GeneID 210198),0.34,enough cells in well,245
Dctpp1 (GeneID 66422),,fewer than 50 cells per well; well left out of calls,279
Sgms2 (GeneID 74442),,fewer than 50 cells per well; well left out of calls,195
Fancd2 (GeneID 211651),0.38,enough cells in well,311
Pofut3 (GeneID 171167),0.88,enough cells in well,391
Stk25 (GeneID 59041),-0.12,enough cells in well,164
Brip1os (GeneID 74038),0.57,enough cells in well,180
Tmem161b (GeneID 72745),,fewer than 50 cells per well; well left out of calls,125
Tbl3 (GeneID 213773),-0.15,enough cells in well,289
Mrpl32 (GeneID 75398),-1.21,enough cells in well,182
Adgre1 (GeneID 13733),-0.47,enough cells in well,144
Larp1b (GeneID 214048),-0.55,enough cells in well,160
A530053G22Rik (GeneID 208079),1.5,enough cells in well,270
Ccdc34 (GeneID 68201),0.56,enough cells in well,317
Smim8 (GeneID 66291),0.37,enough cells in well,165
Dusp18 (GeneID 75219),-1.08,enough cells in well,139
Tbc1d22b (GeneID 381085),-0.74,enough cells in well,89.8
Gpr19 (GeneID 14760),-0.15,enough cells in well,178
Mapk1 (GeneID 26413),-0.99,enough cells in well,124
Snrk (GeneID 20623),0.13,enough cells in well,242
Pink1 (GeneID 68943),0.59,enough cells in well,279
Nxnl1 (GeneID 234404),-1.17,enough cells in well,63.3
Prdx5 (GeneID 54683),2.08,enough cells in well,245
Myo9a (GeneID 270163),,fewer than 50 cells per well; well left out of calls,187
C3ar1 (GeneID 12267),-0.35,enough cells in well,144
Pirt (GeneID 193003),2.4,enough cells in well,219
Myl6b (GeneID 216459),-0.16,enough cells in well,203
Pcna (GeneID 18538),-0.03,enough cells in well,248
Slc3a2 (GeneID 17254),,fewer than 50 cells per well; well left out of calls,63.9
Suz12 (GeneID 52615),-0.77,enough cells in well,187
Arnt (GeneID 11863),-0.37,enough cells in well,147
Lipt2 (GeneID 67164),,fewer than 50 cells per well; well left out of calls,243
Tnfrsf25 (GeneID 85030),-1.25,enough cells in well,107
Tmem45a2 (GeneID 69457),,fewer than 50 cells per well; well left out of calls,50.8
Fbxl12os (GeneID 66662),1.57,enough cells in well,261
Agbl3 (GeneID 76223),2.46,enough cells in well,385
Nfu1 (GeneID 56748),1.22,enough cells in well,458
Samhd1 (GeneID 56045),-1.37 (active),enough cells in well,74
Ppwd1 (GeneID 238831),,fewer than 50 cells per well; well left out of calls,125
Spata17 (GeneID 74717),,fewer than 50 cells per well; well left out of calls,322
Cbx4 (GeneID 12418),1.19,enough cells in well,401

Active calls, of those listed so far:
Gene,Tnf reporter robust z-score,fewer than 50 cells in well,"Tnf reporter intensity, replicate 1"
Or13e8 (GeneID 56014),3.19 (active),enough cells in well,202
Samhd1 (GeneID 56045),-1.37 (active),enough cells in well,74
